PubChem BioAssay AID504764 – Drosophila RNAi Screening Center, 2011

- Test: 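Genome-wide screen for regulators of Notch-driven gene expression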 (primary screen)
- Cells: Drosophila Kc167 cells
- Reagents: long dsRNA against Drosophila genes
- Duration: about 5 days (4 days dsRNA, then 24 h after transfection)
- Treatment: transfection of constitutively active membrane-tethered Notch lacking the extracellular domain, read 24 h later
- Read-out: 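Light from a Notch-responsive E(spl)m3 luciferase reporter under active Notch, with control-promoter and no-Notch reporter wells to normalise; raw counts from paired wells a and b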
- Scale: induced reporter light, run 1, well a and induced reporter light, run 1, well b: higher = more light from the Notch target reporter with active Notch; control promoter light, run 1, well a and control promoter light, run 1, well b: higher = more light from the viral control promoter (cell number, transfection, viability); uninduced reporter light, run 1, well a: higher = more light from the Notch target reporter without active Notch
- Active means: 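Hit if the duplicate-averaged log2 ratio of induced to control-promoter light gives a plate-wise z beyond ±2, or induced to uninduced beyond ±1.8; weak-control or discordant-duplicate wells dropped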
- Meaning of the calls: active = modifier hit (raised or lowered Notch signal); inactive = not a hit
The deposit covers about 22,000 reagents; shown is an unselected part of those that have a named target and a result. In the full data, 403 (1.9%) got an active call. 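Unnormalised raw counts per well; ratio z-scores behind the hit calls and whether each hit raises or lowers signal are not deposited.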 Entries without a mark were called inactive. A plus sign joins genes that one reagent is predicted to hit. The record does not give: the amount of reagent.

What did the screen give for TotZ?
induced reporter light, run 1, well a: 47885; induced reporter light, run 1, well b: 49125; control promoter light, run 1, well a: 73550; control promoter light, run 1, well b: 46115; uninduced reporter light, run 1, well a: 6130

How did the screen score CG32373?
induced reporter light, run 1, well a: 1.72e5; induced reporter light, run 1, well b: 1.94e5; control promoter light, run 1, well a: 1.49e5; control promoter light, run 1, well b: 1.48e5; uninduced reporter light, run 1, well a: 15140

For bowl, how do the results read?
induced reporter light, run 1, well a: 69050; induced reporter light, run 1, well b: 73150; control promoter light, run 1, well a: 54595; control promoter light, run 1, well b: 61860; uninduced reporter light, run 1, well a: 5055

Which result is listed for Ttc26?
induced reporter light, run 1, well a: 1.60e5; induced reporter light, run 1, well b: 1.57e5; control promoter light, run 1, well a: 2.40e5; control promoter light, run 1, well b: 2.78e5; uninduced reporter light, run 1, well a: 14070

Which result is listed for blo?
induced reporter light, run 1, well a: 56555 (active); induced reporter light, run 1, well b: 65350; control promoter light, run 1, well a: 39140; control promoter light, run 1, well b: 34255; uninduced reporter light, run 1, well a: 4895

With CG10747, what was measured?
induced reporter light, run 1, well a: 45940; induced reporter light, run 1, well b: 44830; control promoter light, run 1, well a: 42955; control promoter light, run 1, well b: 53245; uninduced reporter light, run 1, well a: 3128

With Shark, what does the deposit list?
induced reporter light, run 1, well a: 83565; induced reporter light, run 1, well b: 69805; control promoter light, run 1, well a: 1.28e5; control promoter light, run 1, well b: 1.43e5; uninduced reporter light, run 1, well a: 6730

3 entries from above, set out differently.
gene,"induced reporter light, run 1, well a","induced reporter light, run 1, well b","control promoter light, run 1, well a","control promoter light, run 1, well b","uninduced reporter light, run 1, well a"
TotZ,47885,49125,73550,46115,6130
CG32373,1.72e5,1.94e5,1.49e5,1.48e5,15140
bowl,69050,73150,54595,61860,5055

Continued.
What is on record for CG14626?
induced reporter light, run 1, well a: 1.59e5; induced reporter light, run 1, well b: 1.26e5; control promoter light, run 1, well a: 2.19e5; control promoter light, run 1, well b: 2.25e5; uninduced reporter light, run 1, well a: 9845

For CG31068, what does the deposit list?
induced reporter light, run 1, well a: 1.66e5; induced reporter light, run 1, well b: 1.92e5; control promoter light, run 1, well a: 2.01e5; control promoter light, run 1, well b: 2.32e5; uninduced reporter light, run 1, well a: 15200

For COX7C, what was measured?
induced reporter light, run 1, well a: 1.87e5; induced reporter light, run 1, well b: 1.64e5; control promoter light, run 1, well a: 1.62e5; control promoter light, run 1, well b: 1.76e5; uninduced reporter light, run 1, well a: 12010

With AIMP3, what was measured?
induced reporter light, run 1, well a: 52130; induced reporter light, run 1, well b: 46955; control promoter light, run 1, well a: 43465; control promoter light, run 1, well b: 44450; uninduced reporter light, run 1, well a: 3530

With EMC3, what does the deposit list?
induced reporter light, run 1, well a: 1.26e5; induced reporter light, run 1, well b: 1.37e5; control promoter light, run 1, well a: 67000; control promoter light, run 1, well b: 95960; uninduced reporter light, run 1, well a: 18855

What did the screen give for omd?
induced reporter light, run 1, well a: 80230; induced reporter light, run 1, well b: 74205; control promoter light, run 1, well a: 31525; control promoter light, run 1, well b: 31235; uninduced reporter light, run 1, well a: 18870

What is on record for px?
induced reporter light, run 1, well a: 45335; induced reporter light, run 1, well b: 48095; control promoter light, run 1, well a: 35285; control promoter light, run 1, well b: 37315; uninduced reporter light, run 1, well a: 8770

How did the screen score RpS29 + snoRNA:Psi18S-1275?
induced reporter light, run 1, well a: 1.68e5; induced reporter light, run 1, well b: 1.45e5; control promoter light, run 1, well a: 1.66e5; control promoter light, run 1, well b: 1.30e5; uninduced reporter light, run 1, well a: 14090

Which result is listed for Akr1B?
induced reporter light, run 1, well a: 1.22e5; induced reporter light, run 1, well b: 1.23e5; control promoter light, run 1, well a: 1.02e5; control promoter light, run 1, well b: 50365; uninduced reporter light, run 1, well a: 8270

For TM4SF, what does the deposit list?
induced reporter light, run 1, well a: 1.87e5; induced reporter light, run 1, well b: 2.16e5; control promoter light, run 1, well a: 1.76e5; control promoter light, run 1, well b: 1.63e5; uninduced reporter light, run 1, well a: 15140

What is on record for CG15117?
induced reporter light, run 1, well a: 51830; induced reporter light, run 1, well b: 54385; control promoter light, run 1, well a: 1.01e5; control promoter light, run 1, well b: 1.03e5; uninduced reporter light, run 1, well a: 6720
